Values from PubChem BioAssay AID1508597 (Cure First, 2020).

- Test: 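Survival screen with siRNA in ovarian cancer cells derived from patients, with or without rucaparib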 (primary screen)
- Cells: human ovarian carcinoma lines grown from tumours: OCI-P5x (papillary serous) and OCI-C5x (clear cell)
- Reagents: siRNA pool against human genes, 1.25 pmol siRNA per well
- Time to read-out: 72 h or 96 h, depending on the cell culture
- Challenge: rucaparib 20 µM (about IC30) or vehicle, present until read-out
- Rucaparib or vehicle: Vehicle
- Cell line: OCI-C5x (clear cell)
- Measured: 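ATP luminescence measured at 72 or 96 h according to the culture, then normalised and expressed as percent viability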
- Direction: viability, normalised: higher = more viable cells remaining
- Rule for the call: 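Active when normalised viability falls below 80 percent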
- Meaning of the calls: active = viability under 80%; inactive = viability 80% or more
Shown is an unselected part of the about 2,100 reagents, in one setting of the screen. 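Calls flag viability under 80% in either arm, not effects specific to rucaparib; the reference for percent is not stated.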 Some reagents were tested in more than one well and are listed for each. No sequences are given here. Not given: the 100% reference.

gene | technical replicate | viability, normalised (%) | Outcome
ACVR2B | 1 | 116 | inactive
ACVR2B | 2 | 59.3 | active
ACVR2B | 3 | 56.6 | active
MED1 | 1 | 56.8 | active
MED1 | 2 | 56.5 | active
MED1 | 3 | 58.4 | active
TYRO3 | 1 | 51.4 | active
TYRO3 | 2 | 50.5 | active
TYRO3 | 3 | 51.9 | active
CDK5 | 1 | 58.7 | active
CDK5 | 2 | 43.4 | active
CDK5 | 3 | 42.9 | active
ERCC3 | 1 | 32.4 | active
ERCC3 | 1 | 56.3 | active
ERCC3 | 2 | 67.4 | active
ERCC3 | 2 | 32.4 | active
ERCC3 | 3 | 62.3 | active
ERCC3 | 3 | 38.6 | active
RIOX1 | 1 | 26.1 | active
RIOX1 | 2 | 37.2 | active
RIOX1 | 3 | 39.4 | active
NME8 | 1 | 44 | active
NME8 | 1 | 64.7 | active
NME8 | 2 | 59.5 | active
NME8 | 2 | 39.7 | active
NME8 | 3 | 44.8 | active
NME8 | 3 | 38.8 | active
CD79A | 1 | 50.3 | active
CD79A | 2 | 58.5 | active
CD79A | 3 | 52.2 | active
TDP2 | 1 | 57.9 | active
TDP2 | 1 | 45.7 | active
TDP2 | 2 | 48.4 | active
TDP2 | 2 | 40.6 | active
TDP2 | 3 | 42.7 | active
TDP2 | 3 | 46.3 | active
CLDN11 | 1 | 34.6 | active
CLDN11 | 2 | 53.3 | active
CLDN11 | 3 | 31.6 | active

Looked up above:
Under “Outcome”, TYRO3, technical replicate 1 reads active
CLDN11, technical replicate 1, Outcome: active
Under “Outcome”, RIOX1, technical replicate 2 shows active
Value for CDK5, technical replicate 1 in “Outcome”: active
Value for CDK5, technical replicate 2 in “Outcome”: active
